Assay results taken from PubChem BioAssay AID1508600 (Functional Genomics Laboratory (NCATS/FGL), 2020).
The campaign covered roughly 53,000 sequences. About 3,700 (7%) were called active.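 How the source made its calls: active means gene knockdowns whose robust z-score for IL-1 alpha signal is at least 2 or at most -2, so actives lie on both sides; inactive means the rest.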 The list shows a part of the results.

experiment: Components of the Cytosolic LPS Sensing Pathway: Gene Identification via Genome-wide siRNA Screen; details: RAW264.7 macrophages, IL-1a HTRF, actives lie on both sides, screened at 100 nM (by protocol), cells primed 5 h with Pam3CSK4 first;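 further: robust z of the log signal after scaling to non-targeting control siRNA wells of the plate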
How it was run: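 RAW264.7 mouse macrophages reverse-transfected with single siRNAs (100 nM final) for 48h, primed with Pam3CSK4 for 5 hours, then transfected with LipidA for 24 hour. Supernatant IL-1a read by HTRF; values normalized to negative-control median, log-transformed robust z-scores.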

z-score, active:
CCAUAGCUCUGGAAUGGUGTT against Kcnt1 -2.59
GCUCAACUUGGAAUUGGAGTT against Arhgap29 2.28
CGGGUGCUAAAAUGUCUAUTT against Khdrbs2 2.81
GGAGAUUGACAUUAGCAACTT against Rps6ka2 3.02
GGCUUAAAGGUCCUGUGCUTT against Ighmbp2 -2.89

z-score, inactive:
GGAAGAUGAUUCAGAUUUGTT against Adig 1.49
GGGUUAUGGAUUUGAAGUGTT against Tmem131l 1.3
GGAAAAAUCAGUUUCGUCUTT against Dgkq 0.305
GGCUAAGUACUCAGCAUAGTT against Ctf2 0.0269
CGACUCUGAAGCUAAACAATT against Npr3 -0.415
CCAGACAUUUGAUAGCCAUTT against Fam241a -1.42
GGGUAUGGAUUCCUGUCAGTT against Pcca -0.712
CCCGGGAUAGAGAGGAAAUTT against Nbl1 -0.256
GGACUUCACAAAGAGCUUUTT against Ogfod1 -0.606
GGAGGAGAAGAAGAAGGCCTT against Unc119b 0.28
GGAGUUCUUUACAUUGGACTT against Olfr554 0.324
CCCAAGUGGCAUCUAUUCATT against Capn3 -0.563
GGACUCUGUCUCCAUCUAATT against Map7 1.38
GGUUGGACAGUAAGAUUCATT against Ubxn7 1.23
GCUCUUUUAACGUAAUGGGTT against Cpe -1.02
CCAAUGUUGGCAUUAUGUUTT against Fah -0.354
GGUGGAUACAGUGUACACUTT against Cldn13 0.207
GGAGCAUGAGUAUUACAAUTT against Pi16 0.969
GGAGAAGAUUGUAAAGGGCTT against Lig3 0.211
GGUUAGAGGGAGAAGUGAATT against Polr2m -0.807
GUAGAAGAUGGAAUUUUUGTT against Rpl22l1 0.048
GGAUUCAGAAGGCCUCAGUTT against Olfr399 0.132
GGUUCUGAGUCUUAUCUUCTT against Sult5a1 0.542
GGUUCAAGGGCCAGAUCCUTT against Rpl32 0.887
CCUGGAGUUAGUUUGACAGTT against Atf4 -0.042
GGCAAACUUAUCUUCUUCUTT against Ahsa1 -1.89
GGCAAGAUCCUAGCAUCCGTT against Rad54l2 0.00343
GGAGUCAGACUGAUGUCAUTT against Cdipt 0.327
GCUUCGAAGCAACAUCCGATT against Rims3 -0.00729
GGAGUUUCCACAAGACCUGTT against Csrp3 -0.153
GGCCGUGUACAACAACUUCTT against Tshz3 0.254
GCAGCCGAUUAUCAGCGAATT against Cyp7b1 0.649
GCGACACCUUUUUUUGGGATT against Ppp1r3c -0.78
GCUCGAGCUUUAUUUAAAUTT against Adarb1 0.302
CCAAUUAUCACUUUAGACUTT against Zfp652 0.118
CCGCAUCCUAAGUUUUAAATT against Gm4827 -0.958
GCGACUGUUCGGUGGUACATT against Tmem191c 0.00701
GGUGUCAGUGAAGGCGAAATT against H1f1 0.354
CGAAGGAGAUUCCGAUAAATT against Arl5c 1.55
GGCCAAGAAUGAUCGUUCUTT against Gabrb3 0.00587
GCUAAUCGAAGUUGAAAUUTT against Soga3 -0.316
CCAAUACCUGCAAGACCUGTT against Ddx49 0.458
GGAGGAAAGUAUGAAGAAATT against Cyp2j9 -0.337
CCCGGAAAAUUGUAUUGGATT against Klhl6 0.42
GCUUCCUAACUUGAAAGCATT against Etos1 -0.33
GCCAAAAUUUCUCUAGCAUTT against Olfr1445 -0.247
CCGUUUAUGACAAUGGCGUTT against Tub -0.249
GGGACGAGAUUGAAGAAGATT against Snx2 -0.104
GCCCGAGGCAUUGAAUUUGTT against Tmem147 1.5
GGCCUCAAGAACUUUUUGCTT against Cntrob -0.339
CGACACUCCGAUCGUCAAGTT against Grm4 -1.07
GCACUCACACAUUAAGAGATT against Tmem79 -0.355
GCUAGAGCUCACCAAAUAATT against Fam83a 0.759
GGAGAGCAAGGAGAACCAATT against Itga7 1.35
CCUAUAUGACAAAAGACAGTT against Glra2 -0.168
CCUGAGACCGAAUUUUACCTT against Cer1 -0.209
GGAUCCUGUGGCUAAAGAGTT against Zc3h12a -0.606
CCAGCCAUAUCAACCGUAUTT against Lzts3 0.084
GGAUUUGACCAGUAUAAGUTT against Ptgs2 -1.05
GCCAUGUUUCUACUGAUAGTT against Fam24b 1.15
GGAAAAUCUGGAGUUCUUCTT against Npas1 1.3
GCCCAAAAAGGAAUUAAUUTT against Pak3 -0.176
GCCCAUAUGAUCACAGUCGTT against Ptpn2 -1.32

Nothing new here: an excerpt of the list.
z-score, inactive:
GGAAAAAUCAGUUUCGUCUTT against Dgkq 0.305
GGCUAAGUACUCAGCAUAGTT against Ctf2 0.0269
CGACUCUGAAGCUAAACAATT against Npr3 -0.415
CCAGACAUUUGAUAGCCAUTT against Fam241a -1.42
